This experiment has as its target VISA, endogenous in HeLa cells (human (endogenous in HeLa)) (UniProt Q7Z434). Description: co-IP; endogenous proteins in HeLa cell lysates; anti-VISA or anti-PDCD10 antibody as IP primary antibody.

By UniProt entry, the sequences of proteins in these tests, tags left out.
UniProt Q7Z434: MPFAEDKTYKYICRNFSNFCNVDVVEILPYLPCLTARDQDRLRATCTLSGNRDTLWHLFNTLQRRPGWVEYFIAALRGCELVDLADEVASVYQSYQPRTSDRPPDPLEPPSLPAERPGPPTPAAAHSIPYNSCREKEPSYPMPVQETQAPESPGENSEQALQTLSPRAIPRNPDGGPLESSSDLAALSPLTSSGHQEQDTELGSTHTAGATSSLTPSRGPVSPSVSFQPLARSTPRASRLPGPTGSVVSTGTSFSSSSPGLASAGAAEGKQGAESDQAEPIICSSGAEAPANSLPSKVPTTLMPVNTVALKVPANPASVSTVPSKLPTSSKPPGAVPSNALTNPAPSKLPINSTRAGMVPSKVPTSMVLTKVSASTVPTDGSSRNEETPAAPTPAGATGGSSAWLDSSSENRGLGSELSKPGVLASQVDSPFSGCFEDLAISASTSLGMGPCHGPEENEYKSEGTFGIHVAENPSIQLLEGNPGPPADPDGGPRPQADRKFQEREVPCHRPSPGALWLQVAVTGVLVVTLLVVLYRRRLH
UniProt Q9BUL8: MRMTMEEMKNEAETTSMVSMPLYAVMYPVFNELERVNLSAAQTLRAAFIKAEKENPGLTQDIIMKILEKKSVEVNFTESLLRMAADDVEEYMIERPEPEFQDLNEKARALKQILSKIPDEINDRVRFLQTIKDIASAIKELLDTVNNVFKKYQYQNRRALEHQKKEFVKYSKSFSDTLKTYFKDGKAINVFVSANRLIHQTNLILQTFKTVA

These are yes or no findings as the source states them, for the method shown. In cells and extracts the contact can be indirect. Some results given as binding are weak or reduced against the parent protein; the word gives no strength.

Regarding “PDCD10, endogenous in HeLa cells (from UniProt Q9BUL8 1-212)”, the binding result is recorded as “binds”.

The values above are taken from paper PMC12724370.
